Source: PubChem BioAssay AID1918968 (NCATS, 2023).

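Karpas25 multiple myeloma cell line treated for 48 h, with viability read as ATP-driven luminescence (CellTiter-Glo). Each compound was run as a dilution series, mostly topping out near 45.8 µM, with the full assay spanning about 3.1e-05 to 92 µM. The value is the fitted AC50, the concentration giving half the maximal effect; a lower value means a more potent compound. Calls follow NCATS curve-class scoring: well-fitted cell-killing curves score 40–100 and are active, while weak, poorly fitted, top-dose-only or opposite-direction curves score 1–39 and are inconclusive.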

Values are in µM. Every entry below has the call inconclusive. Only part of the assay is shown, chiefly results filed as inconclusive. A potency from a partial, single-point or poor curve is only a rough figure. Some entries filed as inconclusive have a full curve. The first word of each remark tells which way the curve ran; it can be opposite to the aim of the assay. Activity scores are not listed here.

compound,fitted potency (µM),curve
C[C@]12CC[C@H](O)CC1=CC[C@H]1[C@H]3CCC(=O)[C@@]3(C)CC[C@@H]12,1.663,"cytotoxic, partial curve, poor fit"
CC[C@@H](C)[C@H](NC(=O)[C@H](CC1CCCCC1)NC(=O)c1ccno1)C(=O)N1CCC2(CCc3ccccc32)CC1,0.0372,"rising, full curve, poor fit"
C[C@]12CCC3=C4CCC(=O)C=C4CC[C@@H]3[C@H]1CC[C@@]2(O)CC#N,0.0017,"rising, full curve, poor fit"
CN(C)CCc1c[nH]c2ccc(CS(=O)(=O)N3CCCC3)cc12,29.57,"cytotoxic, single point"
NC(=O)c1ccc(-c2nc(-c3ccc4c(c3)OCCO4)c(-c3ccccn3)[nH]2)cc1,20.93,"cytotoxic, partial curve, poor fit"
Cc1ccnc2c1NC(=O)c1cccnc1N2C1CC1,33.17,"cytotoxic, single point"
C=C(C)[C@@H]1CC[C@]2(C(=O)O)CC[C@]3(C)[C@H](CC[C@@H]4[C@@]5(C)CC[C@H](O)C(C)(C)[C@@H]5CC[C@]43C)[C@@H]12,0.0047,"cytotoxic, full curve, poor fit"
Nc1ccn([C@H]2CC[C@@H](CO)O2)c(=O)n1,16.63,"cytotoxic, partial curve, poor fit"
CC(=O)OCC(=O)[C@@]12OC(C)(C)O[C@H]1C[C@H]1[C@@H]3C[C@H](F)C4=CC(=O)C=C[C@]4(C)[C@@]3(F)[C@@H](O)C[C@@]12C,0.059,"cytotoxic, full curve"
COC(=O)Nc1nc2ccc(C(=O)c3ccc(F)cc3)cc2[nH]1,0.3317,"cytotoxic, full curve"
O=C(O)C1(Cc2cccc(Nc3nccs3)n2)CCC(Oc2cccc(Cl)c2F)CC1 (stereo not given),0.0042,"cytotoxic, full curve, poor fit"
CC(C)(C)Cn1c(N)nc2ccc(-c3[nH]c(C(C)(C)C)nc3-c3ccc(F)cc3)nc21,18.65,"cytotoxic, partial curve, poor fit"
CC(=O)C1=C(O)C=C2Oc3c(C(C)=O)c(O)c(C)c(O)c3C2(C)C1=O (stereo not given),23.48,"rising, partial curve, poor fit"
O=C(Nc1ccc(F)c(C(F)(F)F)c1)Nc1nnc(-c2ccncc2)s1,18.65,"cytotoxic, partial curve"

The first 2 entries again:

compound,fitted potency (µM),curve
C[C@]12CC[C@H](O)CC1=CC[C@H]1[C@H]3CCC(=O)[C@@]3(C)CC[C@@H]12,1.663,"cytotoxic, partial curve, poor fit"
CC[C@@H](C)[C@H](NC(=O)[C@H](CC1CCCCC1)NC(=O)c1ccno1)C(=O)N1CCC2(CCc3ccccc32)CC1,0.0372,"rising, full curve, poor fit"